Laboratory results from doi:10.1101/2025.01.12.632577.
These are yes or no findings as the source states them, for the method shown. In cells and extracts the contact can be indirect. Tags and fused reporters may be left off the sequences shown.

Chains of the proteins cited; added tags and fusions are not shown.
UniProt Q9UBN7: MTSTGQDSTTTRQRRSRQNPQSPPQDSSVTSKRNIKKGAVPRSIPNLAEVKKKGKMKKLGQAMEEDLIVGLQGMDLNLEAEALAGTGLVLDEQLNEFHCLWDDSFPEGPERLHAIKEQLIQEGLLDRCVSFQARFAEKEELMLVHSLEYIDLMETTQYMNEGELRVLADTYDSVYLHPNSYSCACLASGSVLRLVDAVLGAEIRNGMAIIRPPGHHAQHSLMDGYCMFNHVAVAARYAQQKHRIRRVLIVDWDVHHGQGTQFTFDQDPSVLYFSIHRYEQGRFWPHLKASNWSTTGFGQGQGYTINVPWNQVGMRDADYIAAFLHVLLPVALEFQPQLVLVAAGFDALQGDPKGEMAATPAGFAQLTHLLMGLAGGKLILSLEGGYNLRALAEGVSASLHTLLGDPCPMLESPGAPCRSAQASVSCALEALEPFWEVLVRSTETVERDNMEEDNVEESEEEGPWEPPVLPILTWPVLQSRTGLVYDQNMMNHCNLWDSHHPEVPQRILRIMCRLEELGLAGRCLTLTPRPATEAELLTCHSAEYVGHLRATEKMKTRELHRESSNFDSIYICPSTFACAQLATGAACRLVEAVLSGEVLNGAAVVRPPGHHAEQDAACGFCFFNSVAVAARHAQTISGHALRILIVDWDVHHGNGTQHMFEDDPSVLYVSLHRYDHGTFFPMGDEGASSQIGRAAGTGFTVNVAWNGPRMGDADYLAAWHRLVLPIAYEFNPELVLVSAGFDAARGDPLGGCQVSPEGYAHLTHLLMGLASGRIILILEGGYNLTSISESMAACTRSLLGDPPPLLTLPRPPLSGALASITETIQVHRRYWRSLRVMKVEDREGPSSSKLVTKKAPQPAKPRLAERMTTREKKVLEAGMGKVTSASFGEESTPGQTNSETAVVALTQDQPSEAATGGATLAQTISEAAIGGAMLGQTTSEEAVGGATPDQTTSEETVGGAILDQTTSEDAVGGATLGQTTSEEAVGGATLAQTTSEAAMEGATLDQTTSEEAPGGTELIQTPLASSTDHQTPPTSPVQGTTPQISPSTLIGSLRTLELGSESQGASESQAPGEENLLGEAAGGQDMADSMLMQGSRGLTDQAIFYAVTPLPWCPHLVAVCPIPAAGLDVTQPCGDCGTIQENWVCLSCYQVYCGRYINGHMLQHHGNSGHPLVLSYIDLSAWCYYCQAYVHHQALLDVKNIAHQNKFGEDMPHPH

What was measured:
EGFP-HDAC6 (human) = EGFP-HDAC6 (human) (UniProt Q9UBN7); assay: co-IP
EGFP-SIRT2 (human) = biological target: T1, EGFP-SIRT2 (human) (UniProt Q8IXJ6); assay: co-IP
T1 sequence: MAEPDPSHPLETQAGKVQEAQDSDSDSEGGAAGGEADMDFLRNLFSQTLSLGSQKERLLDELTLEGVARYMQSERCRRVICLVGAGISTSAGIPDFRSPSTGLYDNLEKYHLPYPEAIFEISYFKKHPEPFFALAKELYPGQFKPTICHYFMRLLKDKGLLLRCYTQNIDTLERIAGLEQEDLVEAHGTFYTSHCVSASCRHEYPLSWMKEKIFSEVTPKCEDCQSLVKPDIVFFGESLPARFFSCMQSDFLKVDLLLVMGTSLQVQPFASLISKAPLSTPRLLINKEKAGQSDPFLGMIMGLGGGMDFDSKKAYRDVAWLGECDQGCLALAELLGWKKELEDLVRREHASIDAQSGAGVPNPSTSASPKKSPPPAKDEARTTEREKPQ

binding (EGFP-HDAC6 (human)): no binding
binding (EGFP-SIRT2 (human)): no binding
B1: HA-BirA*-JPT2 (protein, UniProt Q9H910-1 1-190)
chain: MFQVPDSEGGRAGSRAMKPPGGESSNLFGSPEEATPSSRPNRMASNIFGPTEEPQNIPKRTNPPGGKGSGIFDESTPVQTRQHLNPPGGKTSDIFGSPVTATSRLAHPNKPKDHVFLCEGEEPKSDLKAARSIPAGAEPGEKGSARKAGPAKEQEPMPTVDSHEPRLGPRPRSHNKVLNPPGGKSSISFY
